Measured values published in patent US20130302347A1.
These are yes or no findings as the source states them, for the method shown. Some binding calls cover weakened binding; strength is not graded here. For some assays here: Tags and fused reporters may be left off the sequences shown.

Amino acid sequences for entries named in this document (tags omitted). A change or cut given only in a name is not applied to a line headed by its entry.
UniProt Q6UW32: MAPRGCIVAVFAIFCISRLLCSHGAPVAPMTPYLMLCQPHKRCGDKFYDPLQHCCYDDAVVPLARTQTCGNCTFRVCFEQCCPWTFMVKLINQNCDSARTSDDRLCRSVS
UniProt Q6UXB1: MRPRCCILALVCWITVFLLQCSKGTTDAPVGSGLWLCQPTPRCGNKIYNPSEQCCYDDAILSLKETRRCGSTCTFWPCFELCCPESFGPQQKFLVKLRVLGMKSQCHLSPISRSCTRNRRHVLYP

Experiments:
[1] = molecular target: T1, TMEM149 as arrayed on the secreted protein microarray (Genentech SPDI library) (human) (UniProt Q9H665); experiment: protein microarray probed with fluorescently labelled FLAG-IGFL1
T1 sequence: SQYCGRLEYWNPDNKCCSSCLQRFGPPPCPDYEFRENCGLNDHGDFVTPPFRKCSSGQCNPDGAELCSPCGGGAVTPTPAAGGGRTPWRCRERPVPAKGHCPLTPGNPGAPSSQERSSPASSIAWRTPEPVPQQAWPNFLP

[2] = molecular target: T1, TMEM149 as arrayed on the secreted protein microarray (Genentech SPDI library) (human); experiment: protein microarray of ~700 secreted or transmembrane proteins probed with Cy-5 labelled IGFL1 (20 ug/ml)
[3] = molecular target: T2, Human TMEM149-GFP on transfected HEK293T cells (human) (UniProt Q9H665); experiment: flow cytometry of HEK293T cells transfected with TMEM149-GFP, FLAG-IGFL1 at 10 µg/ml, fluorescent anti-FLAG
T2 sequence: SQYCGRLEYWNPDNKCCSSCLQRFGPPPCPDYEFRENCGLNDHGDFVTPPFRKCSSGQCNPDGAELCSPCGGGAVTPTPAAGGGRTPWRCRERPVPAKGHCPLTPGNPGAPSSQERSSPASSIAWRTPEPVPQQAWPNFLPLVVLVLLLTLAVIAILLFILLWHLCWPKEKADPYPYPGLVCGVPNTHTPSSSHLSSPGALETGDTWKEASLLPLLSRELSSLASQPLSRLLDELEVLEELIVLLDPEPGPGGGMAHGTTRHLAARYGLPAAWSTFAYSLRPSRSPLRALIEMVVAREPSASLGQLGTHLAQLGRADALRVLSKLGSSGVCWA

[4] = molecular target: T1, TMEM149 as arrayed on the secreted protein microarray (Genentech SPDI library) (human); experiment: protein microarray (SPDI library), fluorescently labelled probe at 20 µg/ml, intensity at 635 nm normalised to the slide average
[5] = molecular target: T2, Human TMEM149-GFP on transfected HEK293T cells (human); experiment: flow cytometry of HEK293T cells transfected with TMEM149-GFP, FLAG-IGFL3 (as Example 14, 10 µg/ml), fluorescent anti-FLAG

Row | binding [1] | binding [2] | binding [3] | binding [4] | binding [5] | Substance
1 | binds | binds | binds | binds |  | FLAG-IGFL1 (recombinant human IGFL1 with FLAG epitope tag) (from UniProt Q6UW32 25-110) (ligand)
2 |  |  |  |  | binds | FLAG-IGFL3 (recombinant human IGFL3 with FLAG epitope tag) (from UniProt Q6UXB1 25-125) (ligand)
